Results of single-concentration screens

By UniProt entry, the sequences of proteins in these tests, tags left out. Residues count along the entry.
UniProt Q4DA54, 1-478: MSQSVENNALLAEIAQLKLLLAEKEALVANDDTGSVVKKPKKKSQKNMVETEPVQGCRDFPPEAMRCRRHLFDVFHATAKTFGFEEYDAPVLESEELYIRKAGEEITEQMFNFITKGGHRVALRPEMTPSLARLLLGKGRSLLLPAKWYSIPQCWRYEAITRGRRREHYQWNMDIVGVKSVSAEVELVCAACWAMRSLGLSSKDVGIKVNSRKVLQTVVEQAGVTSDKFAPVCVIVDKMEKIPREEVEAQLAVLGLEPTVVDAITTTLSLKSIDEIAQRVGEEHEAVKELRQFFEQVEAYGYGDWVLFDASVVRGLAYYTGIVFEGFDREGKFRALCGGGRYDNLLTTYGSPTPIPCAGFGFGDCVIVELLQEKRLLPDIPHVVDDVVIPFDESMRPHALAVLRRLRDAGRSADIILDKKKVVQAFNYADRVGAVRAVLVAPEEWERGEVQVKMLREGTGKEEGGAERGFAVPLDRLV
UniProt P9WNZ1, whole entry: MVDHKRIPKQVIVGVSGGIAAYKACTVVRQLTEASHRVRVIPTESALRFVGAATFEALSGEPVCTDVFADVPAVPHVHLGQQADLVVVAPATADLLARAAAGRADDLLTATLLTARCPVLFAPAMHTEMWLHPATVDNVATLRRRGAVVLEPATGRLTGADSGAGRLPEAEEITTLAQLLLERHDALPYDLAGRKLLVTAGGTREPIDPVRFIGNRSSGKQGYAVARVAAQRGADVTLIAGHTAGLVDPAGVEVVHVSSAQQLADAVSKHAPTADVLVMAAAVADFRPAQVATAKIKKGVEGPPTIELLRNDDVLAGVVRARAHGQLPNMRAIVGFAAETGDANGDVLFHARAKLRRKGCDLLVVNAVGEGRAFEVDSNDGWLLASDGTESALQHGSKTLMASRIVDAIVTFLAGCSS
UniProt A4I591, 1-473: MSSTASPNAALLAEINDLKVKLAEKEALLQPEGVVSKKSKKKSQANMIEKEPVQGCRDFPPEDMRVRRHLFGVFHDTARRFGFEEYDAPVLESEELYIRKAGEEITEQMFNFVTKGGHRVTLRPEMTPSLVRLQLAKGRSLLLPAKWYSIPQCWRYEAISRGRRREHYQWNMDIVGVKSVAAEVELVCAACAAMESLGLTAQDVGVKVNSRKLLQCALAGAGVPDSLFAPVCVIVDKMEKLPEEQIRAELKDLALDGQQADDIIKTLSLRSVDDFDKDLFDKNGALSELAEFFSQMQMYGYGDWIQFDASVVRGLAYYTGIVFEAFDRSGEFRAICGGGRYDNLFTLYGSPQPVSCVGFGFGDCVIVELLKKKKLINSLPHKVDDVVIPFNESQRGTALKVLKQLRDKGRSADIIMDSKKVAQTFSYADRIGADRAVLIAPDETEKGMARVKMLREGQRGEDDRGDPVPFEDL

TcHisRS: 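Histidine-tRNA ligase, Trypanosoma cruzi CL Brener (UniProt Q4DA54). Enzyme assay of histidyl-tRNA synthetase; the read-out is not stated. Compounds at 30 µM. The record gives no direction; compounds that gave an IC50 in retests scored well above the rest, so higher reads as stronger inhibition. About 69,000 compounds were tested under these conditions; 0.045% (about 31) showed 50% or more at least once.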
Leishmania in macrophages: 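Cell assay of Leishmania donovani living inside macrophages; the read-out is not stated. Concentration: 30 µM. Higher reads as stronger inhibition (inferred: compounds with an IC50 in retests scored well above the rest). Size under these conditions: about 69,000 compounds, about 1,000 of them at 50% or above in at least one test.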
Toxoplasma: 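Assay of Toxoplasma gondii numbers, read through their beta-galactosidase reporter with a colour substrate. Compounds at 10 µM. The record gives no direction; the compounds picked for IC50 retests had high values, so higher reads as fewer parasites. About 67,000 compounds were tested under these conditions; 0.38% (about 260) showed 50% or more at least once.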
CoaBC: 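Coenzyme A biosynthesis protein CoaBC, Mycobacterium tuberculosis (UniProt P9WNZ1). Enzyme assay of CoaBC with a phosphate dye (Biomol Green) read at 650 nm. Tested at 30 µM. Higher reads as stronger inhibition, judged from the few compounds that gave an IC50. Most strong results did not repeat in a second test. Of about 67,000 compounds tested this way, about 40 (0.06%) reached 50% or more in at least one test.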
LiHisRS: 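Histidine-tRNA ligase, Leishmania infantum (UniProt A4I591). Enzyme assay of histidyl-tRNA synthetase; the read-out is not stated. Tested at 30 µM. The record gives no direction; compounds that gave an IC50 in retests scored well above the rest, so higher reads as stronger inhibition. The assay is labelled LdHisRS but filed under L. infantum. About 69,000 compounds were tested under these conditions; 0.6% (about 410) showed 50% or more at least once.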

Results are given as percent effect.
The record does not define 0% and 100%; most values in the screen are far below 50% and negative numbers occur (in some assays of this library far below -100).
This is an unselected part of the compounds tested.
Two or more numbers in one place are separate tests of the same structure; such repeats can differ widely.
A dash means the value is not listed here; it may have been measured.

| SMILES | TcHisRS | Leishmania in macrophages | Toxoplasma | CoaBC | LiHisRS |
|---|---|---|---|---|---|
| `CC(C)c1cc(CSCCC(=O)O)no1` | -6.936% | 5.752% | 20.83% | 1.84% | 0% |
| `COc1ccc2cc(C(=O)N3CCCCC3CC(N)=O)[nH]c2c1` (stereo not given) | 1.527% | 4.026% | 2.965% | -2.41% | 19.18% |
| `Cc1nc(CN(C)C(=O)Nc2cnn(CC3CCCO3)c2)cs1` (stereo not given) | 9.167% | -0.2275% | -2.077% | -6.61% | 13.46% |
| `Cc1ccc(CN2C[C@@H](C(=O)O)[C@H](c3cccnc3)C2)s1` | 3.185% | 12.73% | 3.02% | - | 23.94% |
| `Cc1ccn(CCC(=O)NC(C)Cc2ccco2)n1` (stereo not given) | 12% | -1.28% | 1.367% | 2.503% | 12.33% |
| `O=C(NCc1cccc(F)c1)Nc1ccn(CCN2CCOCC2)n1` | 0% | 26.15% | 15.18% | 1.707% | 11.2% |
| `CSCC(=O)N[C@H]1CN(Cc2c(C)noc2C)C[C@@H]1C(C)C` | -0.6369% | -4.984% | 0.2157% | - | -4.225% |
| `CCn1nc2c(cc1=O)CN(CC(=O)N(C)c1nccs1)CC2` | 1.176% | 14.94% | 10.74% | -2.211% | 5.556% |
| `Cc1ccc(N2CCc3sc(C(=O)NCCN4CCCC4)cc32)nn1` | 14.02% | -4.68% | 12.25% | 0.4938% | 8.333% |
| `CCCc1nc(C)cc(N2CCC3(CCC(=O)N(CCOC)C3)CC2)n1` | 3.39% | 28.79% | 1.01% | 1.322% | 18.87% |
| `CC(C)c1nnc(NCc2cc3n(n2)CCN(C2CCCCC2)C3)s1` | 12.77% | 25.84% | 8.396% | 4.016% | 25.37% |
| `[O-][S+](Cc1c(F)cccc1Cl)Cc1nnnn1C1CC1` (stereo not given) | 10% | -31.87% | 2.719% | 0.9685% | 23.91% |
| `CNC(=O)c1cc(S(=O)(=O)C(C)C)cs1` | 2.256% | 8.809% | 2.957% | 3.628% | 14.63% |
| `C=C(C)COc1ccccc1CNCCc1c[nH]cn1` | 3.797% | -24.37% | -2.911% | 4.808% | 18.75% |
| `Cc1cc(C2CCCCN2C(=O)c2ccsc2)nc2nccn12` (stereo not given) | 3.042% | 4.771% | -13.41% | 4.574% | 7.586% |
| `[H][C@]12CN(Cc3ccc(OC)cc3)C(=O)[C@@]1([H])CN(S(=O)(=O)C1CC1)C2` | - | 7.6% | -3.769% | - | - |
| `NC(=O)C1CCN(C(=O)c2ccccc2OCc2ccccc2Cl)CC1` | 8.671% | -6.771% | -9.079% | -0.2481% | 12.77% |
| `COCCCC1CCCN(C(=O)CCc2cc(O)no2)C1` (stereo not given) | 4.065% | 14.79% | -12.56% | 5.485% | 20.19% |
| `O=C(NC1CCCC1)N1C[C@H]2CN(c3ccncc3)C[C@@]2(C(=O)O)C1` | -2.469% | - | - | -1.35% | -1.961% |
| `CCn1ncc(CN2CCN(C(=O)Cn3cc(Br)c(C)n3)CC2)c1C` | -23.76% | 21.38% | -8.25% | -21.2% | -47.25% |
| `CC(=O)N1CCN(C(=O)c2ccc3ccn(C)c3c2)CC1` | 5.263% | 11.29% | -0.04564% | 2.778% | 0% |
| `CCCN1CCC(N(C)C(=O)c2cc(C)nc3cc(F)ccc23)CC1` | 4.762% | 14.89% | -4.73% | -1.106% | 9.302% |
| `O=c1cnc2ccccc2n1CCCn1ccnc1` | 1.212% | -8.268% | -13.77% | 1.788% | 20.78% |
| `CCCn1cnnc1CNC(=O)C1COc2c(cccc2OC)C1` (stereo not given) | 9.211% | 14.57% | -4.795% | - | 10.83% |
| `CCn1cc(CN2CCCN(C(=O)CCc3nccs3)CC2)cn1` | 4.023% | 38.17% | 4.325% | 5.29% | 13.91% |
| `CC(C)(C)c1nnc(CN2CCOC(Cn3cncn3)C2)o1` (stereo not given) | 0% | -5.682% | 4.286% | 0.7772% | 6.383% |
| `CCN(CC)C(=O)c1nnn(Cc2ccccc2)c1OC` | 1.639% | -25.11% | -3.108% | -3.634% | 9.709% |
| `COC(=O)Cn1c(=O)nc2n1C(=O)N(c1ccc(Br)cc1)C2` | 2.424% | -30.56% | -5.273% | -2.043% | 20.78% |
| `O=C(c1ccc2c(c1)OCO2)N1CCC[C@]2(C[C@H](OCC3CC3)CO2)C1` | 6.011% | 23.48% | -1.498% | 0% | 12.41% |
| `O=C(c1ccc[nH]1)N1Cc2nccn2CC(Cn2ncccc2=O)C1` (stereo not given) | 2.857% | 2.975% | -4.165% | -12.95% | 12.5% |
| `Cn1cnnc1SCc1cc2c(cc1Br)OCO2` | 5.941% | -1.981% | - | -0.6075% | 4.348% |
| `COc1c(C2CCCN2CC(=O)N(C)c2nccs2)c(C)nn1C` (stereo not given) | 3.478% | 16.9% | 16.63% | -7.818% | 3.333% |
| `CC(C(=O)N1CCOCC1)n1cncn1` (stereo not given) | 4.871% | 17.99% | -12.04% | 3.354% | 14.04% |
| `CC(C)NC(=O)c1ccc2c(c1)C1(CCN(C)CC1)C(=O)N2.O=C(O)C(F)(F)F` | - | 1.546% | 6.758% | - | - |
| `c1csc(CN2CCCn3nnc(COCC4CC4)c3C2)n1` | 9.184% | - | - | -1.112% | 15% |
| `CN1CCN(Cc2cccnc2)C(=O)C12CCN(CC1CCOC1)CC2.O=C(O)C(F)(F)F.O=C(O)C(F)(F)F.O=C(O)C(F)(F)F` (stereo not given) | - | 27.68% | -3.756% | - | - |
| `CCSCCC(C)N(C)C(=O)c1cc(C)no1` (stereo not given) | 1.622% | 17.17% | 16.74% | -7.273% | 10.96% |
| `N#Cc1cccnc1N1CCC(C2CCCCCN2C(N)=O)CC1` (stereo not given) | 4.734% | 3.07% | 7.273% | 10.52% | 3.571% |
| `CCC(C)NC(=O)CCn1ccc(C)n1` (stereo not given) | 2% | 5.993% | -1.133% | -1.449% | 4.11% |
| `Cc1cc(NC(=O)Cn2cnc(-c3cccs3)cc2=O)sn1` | 2.062% | 18.92% and 6.947% | 37.45% | 13.32% | 26.09% |
| `N#CC1COCCN1C(=O)c1ccc2cc[nH]c2c1` (stereo not given) | 9.045% | -16.82% | 2.377% | 6.796% | 5.882% |
| `CCN(CC)C(=O)Cn1cc(-c2nc(C(C)C)no2)nn1` | -11.59% | 26.38% | 13.08% | 5.383% | 11.48% |
| `CN(C)[C@@H]1CN(C(=O)Cc2ccsc2)[C@@H]2CCCO[C@H]12` | -3.315% | - | - | -1.733% | 4.505% |
| `COC(=O)Cn1nc(-c2ccccc2F)ccc1=O` | 3% | -4.94% | 11.42% | -3.39% | -8.696% |
| `COCc1nc(C(=O)N2CCCC2c2noc(C(C)C)n2)cs1` (stereo not given) | 1.88% | 22.53% | 14.68% | 3.916% | 8.108% |
| `COCCN1C(=O)CC(c2cccnc2)C12CCN(C(=O)C1CC1)CC2.O=C(O)C(F)(F)F` (stereo not given) | - | -7.11% | 3.265% | - | - |
| `CC(=O)NCC(=O)N1CC[C@H](OCC2CC2)[C@@H]1Cc1cccnc1.O=C(O)C(F)(F)F` | - | -7.414% | -0.4274% | - | - |
| `O=C(c1ncccn1)N1C[C@H]2CCC[C@@]2(COc2ccccn2)C1` | 7.438% | - | - | 6.303% | 14.55% |
| `O=C(c1n[nH]c2c1CCN(Cc1nccs1)C2)N1CCCC1` | 1.695% | - | - | 10.13% | 11.32% |
| `COc1ccc(C(O)CN2CC(n3cc(C)cn3)C2)cc1` (stereo not given) | 10.34% | 22.81% | - | 1.599% | 3.226% |
| `O=C(NCc1csc(-c2cccs2)n1)C1NCCc2[nH]cnc21` (stereo not given) | 5.797% | -20.27% | -16.57% | 3.106% | 17.5% |
| `CC(C)Cc1noc(CN2CCC(NC(=O)c3cccs3)CC2)n1` | -1.674% | 6.738% | 14.45% | 14.09% | 16.04% |
| `Cc1csc(C(=O)N2CCC(S(C)(=O)=O)C2)c1` (stereo not given) | -3.704% | 25.41% | 2.688% | 5.765% | 9.333% |
| `O=C(NCCCO)c1nnsc1-c1ccc(Cl)cc1` | 1.339% | 10.11% | -4.851% | 5.102% | -20.99% |
| `O=C(NCCNS(=O)(=O)c1ccc(C(F)(F)F)cc1)c1ccoc1` | 8.163% | 24.27% | -11% | 2.122% | 13.22% |
| `Cc1nc(N(C)C)nc(C)c1NS(=O)(=O)c1ccc(F)cc1F` | -1.554% | 6.067% | 0.8225% | 5.724% | 4.301% |
| `NS(=O)(=O)CCNC(=O)c1nnn(-c2ccccc2)c1C1CC1` | 2.674% | -5.499% | 7.827% | 1.035% | 3.846% |
| `CCN(CC)C(=O)c1nnsc1-c1ccccc1` | 1.554% | -22.11% | 3.579% | -25.26% | 7.865% |
| `COCc1ncn2c1CN(S(=O)(=O)c1cccc(OC)c1)CC2` | 4.95% | -20.03% | 2.833% | -3.752% | -6.849% |
| `CC(=O)c1c(F)cccc1NC1CCN(C(=O)CC(C)C)CC1` | -1.064% | -2.702% | -0.219% | 13.23% | 25% |
| `c1cc(CN2CCO[C@H]3[C@H](OCCN4CCCC4)CC[C@@H]32)co1` | 0% | - | - | -9.988% | 6.944% |

4 of the entries, repeated:

* COC(=O)Cn1nc(-c2ccccc2F)ccc1=O | TcHisRS: 3%; Leishmania in macrophages: -4.94%; Toxoplasma: 11.42%; CoaBC: -3.39%; LiHisRS: -8.696%
* O=C(NCCCO)c1nnsc1-c1ccc(Cl)cc1 | TcHisRS: 1.339%; Leishmania in macrophages: 10.11%; Toxoplasma: -4.851%; CoaBC: 5.102%; LiHisRS: -20.99%
* CCn1cc(CN2CCCN(C(=O)CCc3nccs3)CC2)cn1 | TcHisRS: 4.023%; Leishmania in macrophages: 38.17%; Toxoplasma: 4.325%; CoaBC: 5.29%; LiHisRS: 13.91%
* CC(C)(C)c1nnc(CN2CCOC(Cn3cncn3)C2)o1 (stereo not given) | TcHisRS: 0%; Leishmania in macrophages: -5.682%; Toxoplasma: 4.286%; CoaBC: 0.7772%; LiHisRS: 6.383%

From ChEMBL document CHEMBL3988442, “University of Dundee, Small-Polar-MMV Screening Library” (2021).